Tests used:
ovarian cancer samples = test: Relative LC-MS quantitation of HLA-presented peptides: presentation and over-presentation on ovarian cancer vs a panel of normal tissues (presentation score); set-up: species or system human; key: +++: very highly over-presented on tumors compared to a panel of normal tissues; ++: highly over-presented on tumors compared to a panel of normal tissues; +: over-presented on tumors compared to a panel of normal tissues; details: over-presentation on tumors compared to a panel of normal tissues
additional tumor types = test: LC-MS detection and over-presentation of the peptides on additional tumor types, cell lines and primary cultures; set-up: species or system human; details: for Other relevant organs/ cancerous diseases: Table 4A: additional tumor types on which the peptide was found, over-presented on more than 5% of measured tumor samples, or presented on more than 5% with ratio of geometric means tumor vs normal tissues larger than 3
[1] = amendment of Table 4: additional tumor types showing over-presentation (including specific presentation) on more than 5% of measured tumor samples, or presentation on more than 5% with ratio of geometric means tumor vs normal tissues larger than 3
[2] = additional tumor types with over-presentation on more than 5% of the measured tumor samples, or presentation on more than 5% with ratio of geometric means tumor vs normal tissues larger than 3

Substance	Peptide Presentation (presentation score) (ovarian cancer samples)	Other relevant organs/ cancerous diseases (additional tumor types)	Additional organs/cancerous diseases (additional tumor types; [1])	Additional organs/cancerous diseases (additional tumor types; [2])
14 (AAYGGLNEKSFV; listed as Homo sapiens) [compound 14]	+++	HCC, Urinary bladder Cancer	CLL, Esophageal Cancer	
579 (NLMEMVAQL; listed as Homo sapiens) [compound 579]	++	NSCLC, CRC, HCC, Leukemia		SCLC, CLL, Melanoma, Urinary Bladder Cancer, NHL
241 (SLVEVNPAYSV; listed as Homo sapiens) [compound 241]	+++	Prostate, Gallbladder, Bile duct		
110 (FLSQVDFEL; listed as Homo sapiens) [compound 110]	+++	BrCa		
554 (LLMPSSEDLLL; listed as Homo sapiens) [compound 554]	++	NSCLC, SCLC, CRC, HCC, PrC, BrCa, Esophageal Cancer, Urinary bladder Cancer, Gallbladder Cancer, Bile Duct Cancer		CLL, Melanoma, HNSCC
399 (YLFEPLYHV; listed as Homo sapiens) [compound 399]	+++	SCLC		
247 (VLLPNDLLEKV; listed as Homo sapiens) [compound 247]	+++	Brain Cancer		Melanoma
48 (ALAELYEDEV; listed as Homo sapiens) [compound 48]	+++	SCLC, Brain Cancer, HCC, Leukemia, Melanoma, Uterine Cancer		
589 (KLYPQLPAEI; listed as Homo sapiens) [compound 589]	+	NSCLC, SCLC, Brain Cancer, HCC, Leukemia, MCC, Melanoma, Esophageal Cancer		CLL, BRCA, Urinary Bladder Cancer
564 (TVTNAVVTV; listed as Homo sapiens) [compound 564]	++	RCC, GC, HCC, Melanoma		
86 (NLIGKIENV; listed as Homo sapiens) [compound 86]	+	Colon, Rectum		
540 (ALIPETTTLTV; listed as Homo sapiens) [compound 540]	++	HCC, PC, Melanoma		NHL
502 (RLLAQVPGL; listed as Homo sapiens) [compound 502]	+++	RCC, Urinary bladder Cancer		Melanoma, Uterine Cancer, Gallbladder Cancer and Bile Duct Cancer, AML, NHL
396 (ALLPDLPAL; listed as Homo sapiens) [compound 396]	++	HCC, BrCa		SCLC, Gallbladder Cancer and Bile Duct Cancer, AML, NHL, HNSCC
541 (SMLEPVPEL; listed as Homo sapiens) [compound 541]	+	NSCLC, SCLC, Brain Cancer, CRC, HCC, Esophageal Cancer		Gallbladder Cancer and Bile Duct Cancer
285 (QLLHVGVTV; listed as Homo sapiens) [compound 285]	+	NSCLC, RCC, CRC, Leukemia, Esophageal Cancer		CLL, Melanoma, Urinary Bladder Cancer, AML, NHL
325 (FIMPATVADATAV; listed as Homo sapiens) [compound 325]	+++	Leukemia		CLL, BRCA, Melanoma, Uterine Cancer, NHL
34 (ILVEADSLWVV; listed as Homo sapiens) [compound 34]	+++	SCLC, PrC, Leukemia, Melanoma	AML	
470 (MLQDSIHVV; listed as Homo sapiens) [compound 470]	+++			BRCA
298 (VMITKLVEV; listed as Homo sapiens) [compound 298]	++	Urinary bladder Cancer		Gallbladder Cancer and Bile Duct Cancer
117 (ILPDGEDFLAV; listed as Homo sapiens) [compound 117]	+++	SCLC	CLL, BRCA, Uterine Cancer, NHL	

Substance	Peptide Presentation (presentation score) (ovarian cancer samples)	Other relevant organs/ cancerous diseases (additional tumor types)	Additional organs/cancerous diseases (additional tumor types; [1])	Additional organs/cancerous diseases (additional tumor types; [2])
451 (LLLLDTVTMQV; listed as Homo sapiens) [compound 451]	+++	SCLC, HCC		Melanoma, HNSCC
420 (FMYDTPQEV; listed as Homo sapiens) [compound 420]	++	SCLC, HCC, BrCa		Gallbladder Cancer and Bile Duct Cancer
519 (GLLHLTLLL; listed as Homo sapiens) [compound 519]	+++			SCLC, Gallbladder Cancer and Bile Duct Cancer, AML, HNSCC
320 (KMFEFVEPLL; listed as Homo sapiens) [compound 320]	+	Colon, Rectum		SCLC, Brain Cancer, BRCA, Melanoma, Urinary Bladder Cancer, Uterine Cancer, Gallbladder Cancer and Bile Duct Cancer, AML, HNSCC
107 (FLQPVDDTQHL; listed as Homo sapiens) [compound 107]	+++	Melanoma, Esophageal Cancer	Uterine Cancer, Gallbladder Cancer and Bile Duct Cancer	
159 (GLVGNPLPSV; listed as Homo sapiens) [compound 159]	+++	HCC, Leukemia	BRCA	
150 (RLWEEGEELEL; listed as Homo sapiens) [compound 150]	+++	NSCLC, Melanoma, Esophageal Cancer	Uterine Cancer, Gallbladder Cancer and Bile Duct Cancer, HNSCC	
229 (RLPGPLGTV; listed as Homo sapiens) [compound 229]	++	HCC, Esophageal Cancer, Endometrium		BRCA, Melanoma, Gallbladder Cancer and Bile Duct Cancer
597 (KLLEGQVIQL; listed as Homo sapiens) [compound 597]	+	NSCLC, SCLC, CRC, HCC, BrCa		CLL, Melanoma, Gallbladder Cancer and Bile Duct Cancer, AML
625 (VVLEGASLETV; listed as Homo sapiens) [compound 625]	+	SCLC, Melanoma		CLL, Urinary Bladder Cancer
9 (GAAKDLPGV; listed as Homo sapiens) [compound 9]	++	RCC, GC, HCC, Urinary bladder Cancer	Esophageal Cancer	
33 (VLLSLLEKV; listed as Homo sapiens) [compound 33]	++	Leukemia	CLL, Melanoma	
303 (AILPQLFMV; listed as Homo sapiens) [compound 303]	+	NSCLC, RCC, CRC, BrCa, Esophageal Cancer, Urinary bladder Cancer		Melanoma
227 (ALMNTLLYL; listed as Homo sapiens) [compound 227]	+++			Uterine Cancer, AML, HNSCC
459 (ALITEVVRL; listed as Homo sapiens) [compound 459]	+++	NSCLC, CRC, PC, Leukemia, BrCa, Esophageal Cancer		SCLC, CLL, AML, NHL
438 (KLLPLAGLYL; listed as Homo sapiens) [compound 438]	+++			CLL, BRCA, Melanoma, Uterine Cancer, Gallbladder Cancer and Bile Duct Cancer, AML, HNSCC
512 (SLSEIVPCL; listed as Homo sapiens) [compound 512]	+++			Uterine Cancer, AML, HNSCC
259 (TLMRQLQQV; listed as Homo sapiens) [compound 259]	++			Uterine Cancer
436 (HLAEVSAEV; listed as Homo sapiens) [compound 436]	+++			NSCLC, SCLC, CLL, BRCA, Melanoma, Urinary Bladder Cancer, Gallbladder Cancer and Bile Duct Cancer, AML, NHL, HNSCC
411 (LLAHLSPEL; listed as Homo sapiens) [compound 411]	+	HCC		Melanoma

From US11230581B2, “Peptides and combination of peptides for use in immunotherapy against ovarian cancer and other cancers” (Immatics Biotechnologies GmbH, priority 2015, dated 2022)
